US20080009479A1, “Tetrahydrobenzazepines as Histamine H3 Receptor Ligands” (GLAXO GROUP LIMITED, priority 2004, published 2008)
Some of these results come from one statement about several compounds together.

Protein sequences, listed by entry. Tags and fused reporters are not part of them. Lines headed by an entry give the natural chain unless they say otherwise; changes in a name come on top.
UniProt Q9Y5N1: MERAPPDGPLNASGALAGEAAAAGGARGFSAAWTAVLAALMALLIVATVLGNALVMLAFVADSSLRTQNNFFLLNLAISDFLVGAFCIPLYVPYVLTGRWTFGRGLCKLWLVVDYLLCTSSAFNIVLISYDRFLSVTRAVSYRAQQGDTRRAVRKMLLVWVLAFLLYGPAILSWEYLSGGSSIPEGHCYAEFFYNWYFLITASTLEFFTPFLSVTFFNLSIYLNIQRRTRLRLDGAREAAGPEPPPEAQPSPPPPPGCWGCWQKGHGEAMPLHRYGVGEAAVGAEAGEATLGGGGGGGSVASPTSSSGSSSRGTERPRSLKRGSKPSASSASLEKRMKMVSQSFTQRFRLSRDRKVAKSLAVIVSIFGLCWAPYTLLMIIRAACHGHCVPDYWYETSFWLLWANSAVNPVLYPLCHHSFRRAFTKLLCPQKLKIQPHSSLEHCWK

How the values were obtained:
[1] = molecular target: T1, human histamine H3 receptor (Homo sapiens, UniProt Q9Y5N1); assay: Histamine H3 functional antagonist assay (method B); type: biochemical; conditions: [35S]GTPγS LeadSeeker SPA, CHO membranes, histamine at EC80, 384 well
T1 construct: expressed in transfected cells; host or cells: CHO K1 cells carrying the pSwitch regulatory plasmid, transfected with pGeneH3 and induced with mifepristone; clone 3H3; membranes prepared from these cells
Excerpt: (§1) A membrane preparation containing histamine H3 receptors may be prepared in accordance with the following procedures:
(§2) DNA encoding the human histamine H3 gene (Huvar, A. et al. (1999) Mol. Pharmacol. 55(6), 1101-1107) was cloned into a holding vector, pCDNA3.1 TOPO (InVitrogen) and its cDNA was isolated from this vector by restriction digestion of plasmid DNA with the enzymes BamH1 and Not-1 and ligated into the inducible expression vector pGene (InVitrogen) digested with the same enzymes. The GeneSwitch™ system (a system where in transgene expression is switched off in the absence of an inducer and switched on in the presence of an inducer) was performed as described in U.S. Pat. Nos. 5,364,791; 5,874,534; and 5,935,934. […]
(§3) 10-14 days post selection 10 nM Mifepristone (InVitrogen), was added to the culture medium to induce the expression of the receptor. […] Receptor bound antibody was detected by incubation of the cells for 60 minutes on ice with a goat anti rabbit antibody, conjugated with Alexa 488 fluorescence marker (Molecular Probes). Following two further washes with Sorting Medium, cells were filtered through a 50 μm Filcon™ (BD Biosciences) and then analysed on a FACS Vantage SE Flow Cytometer fitted with an Automatic Cell Deposition Unit. […]

[2] = molecular target: T1, human histamine H3 receptor; assay: Histamine H3 functional antagonist assay (method C); type: biochemical; conditions: [35S]GTPγS LeadSeeker SPA, CHO membranes, histamine at EC80, 384 well, compound in DMSO
Excerpt: as §1, §2, §3

## CC(C)N1CCc2ccc(OCc3ccccc3)cc2CC1 [Example E2, 3-(1-Methylethyl)-7-[(phenylmethyl)oxy]-2,3,4,5-tetrahydro-1H-3-benzazepine]
[1]
  antagonism pKb, histamine H3 functional antagonist assay (method B): > 7 pKb

## CC(C)CN1CCc2ccc(OCc3ccccc3)cc2CC1 [Example E3, 3-(2-Methylpropyl)-7-[(phenylmethyl)oxy]-2,3,4,5-tetrahydro-1H-3-benzazepine]
[2]
  antagonism pKb, histamine H3 functional antagonist assay (method C): > 7 pKb

## CCN1CCc2ccc(OCc3ccccc3)cc2CC1 [Example E4, 3-Ethyl-7-[(phenylmethyl)oxy]-2,3,4,5-tetrahydro-1H-3-benzazepine]
[2]
  antagonism pKb, histamine H3 functional antagonist assay (method C): > 7 pKb
